Measured values as given in paper PMC10043290.
Results are given in words; binding and its absence hold for the method and conditions named. In cells and extracts the contact can be indirect. Some results given as binding are weak or reduced against the parent protein; the word gives no strength.

By UniProt entry, the sequences of proteins in these tests, tags left out.
UniProt O43670: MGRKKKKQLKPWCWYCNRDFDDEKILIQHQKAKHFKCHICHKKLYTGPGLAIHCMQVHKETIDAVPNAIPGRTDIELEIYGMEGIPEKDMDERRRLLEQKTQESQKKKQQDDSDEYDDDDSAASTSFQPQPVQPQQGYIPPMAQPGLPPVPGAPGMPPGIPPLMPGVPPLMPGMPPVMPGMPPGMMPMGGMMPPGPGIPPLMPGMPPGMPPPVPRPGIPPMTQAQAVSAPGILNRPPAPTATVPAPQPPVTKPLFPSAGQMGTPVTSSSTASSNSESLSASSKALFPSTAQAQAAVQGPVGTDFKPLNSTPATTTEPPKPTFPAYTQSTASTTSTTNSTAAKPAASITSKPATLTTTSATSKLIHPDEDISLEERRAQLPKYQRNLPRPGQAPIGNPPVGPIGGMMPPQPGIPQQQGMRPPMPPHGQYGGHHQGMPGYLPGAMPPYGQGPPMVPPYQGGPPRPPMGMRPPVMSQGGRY

Target: ZNF207 (human (endogenous in HDFs)) (UniProt O43670)
Assay: co-IP; nuclear extracts of HDFs, about 500 ug protein lysate in NP40 lysis buffer (50 mM Tris-HCl, 150 mM NaCl, 1 mM EDTA, 0.5% NP40); anti-ZNF207 or IgG isotype control on protein G magnetic beads, overnight at 4 °C; Western blot for ATF7IP, JUNB, ZNF207

B1: ATF7IP (protein, UniProt Q6VMQ6 1-1270)
chain: MDSLEEPQKKVFKARKTMRVSDRQQLEAVYKVKEELLKTDVKLLNGNHENGDLDPTSPLENMDYIKDKEEVNGIEEICFDPEGSKAEWKETPCILSVNVKNKQDDDLNCEPLSPHNITPEPVSKLPAEPVSGDPAPGDLDAGDPASGVLASGDSTSGDPTSSEPSSSDAASGDATSGDAPSGDVSPGDATSGDATADDLSSGDPTSSDPIPGEPVPVEPISGDCAADDIASSEITSVDLASGAPASTDPASDDLASGDLSSSELASDDLATGELASDELTSESTFDRTFEPKSVPVCEPVPEIDNIEPSSNKDDDFLEKNGADEKLEQIQSKDSLDEKNKADNNIDANEETLETDDTTICSDRPPENEKKVEEDIITELALGEDAISSSMEIDQGEKNEDETSADLVETINENVIEDNKSENILENTDSMETDEIIPILEKLAPSEDELTCFSKTSLLPIDETNPDLEEKMESSFGSPSKQESSESLPKEAFLVLSDEEDISGEKDESEVISQNETCSPAEVESNEKDNKPEEEEQVIHEDDERPSEKNEFSRRKRSKSEDMDNVQSKRRRYMEEEYEAEFQVKITAKGDINQKLQKVIQWLLEEKLCALQCAVFDKTLAELKTRVEKIECNKRHKTVLTELQAKIARLTKRFEAAKEDLKKRHEHPPNPPVSPGKTVNDVNSNNNMSYRNAGTVRQMLESKRNVSESAPPSFQTPVNTVSSTNLVTPPAVVSSQPKLQTPVTSGSLTATSVLPAPNTATVVATTQVPSGNPQPTISLQPLPVILHVPVAVSSQPQLLQSHPGTLVTNQPSGNVEFISVQSPPTVSGLTKNPVSLPSLPNPTKPNNVPSVPSPSIQRNPTASAAPLGTTLAVQAVPTAHSIVQATRTSLPTVGPSGLYSPSTNRGPIQMKIPISAFSTSSAAEQNSNTTPRIENQTNKTIDASVSKKAADSTSQCGKATGSDSSGVIDLTMDDEESGASQDPKKLNHTPVSTMSSSQPVSRPLQPIQPAPPLQPSGVPTSGPSQTTIHLLPTAPTTVNVTHRPVTQVTTRLPVPRAPANHQVVYTTLPAPPAQAPLRGTVMQAPAVRQVNPQNSVTVRVPQTTTYVVNNGLTLGSTGPQLTVHHRPPQVHTEPPRPVHPAPLPEAPQPQRLPPEAASTSLPQKPHLKLARVQSQNGIVLSWSVLEVDRSCATVDSYHLYAYHEEPSATVPSQWKKIGEVKALPLPMACTLTQFVSGSKYYFAVRAKDIYGRFGPFCDPQSTDVISSTQSS
binding: binds

B2: JUNB (protein, UniProt P17275 1-347)
chain: MCTKMEQPFYHDDSYTATGYGRAPGGLSLHDYKLLKPSLAVNLADPYRSLKAPGARGPGPEGGGGGSYFSGQGSDTGASLKLASSELERLIVPNSNGVITTTPTPPGQYFYPRGGGSGGGAGGAGGGVTEEQEGFADGFVKALDDLHKMNHVTPPNVSLGATGGPPAGPGGVYAGPEPPPVYTNLSSYSPASASSGGAGAAVGTGSSYPTTTISYLPHAPPFAGGHPAQLGLGRGASTFKEEPQTVPEARSRDATPPVSPINMEDQERIKVERKRLRNRLAATKCRKRKLERIARLEDKVKTLKAENAGLSSTAGLLREQVAQLKQKVMTHVSNGCQLLLGVKGHAF
binding: binds
